Assay results as given in PubChem BioAssay AID2685 (National Center for Advancing Translational Sciences (NCATS), 2010).
The other results are listed elsewhere or left out. Shown are side measurements of this screen, not its main read-out; they come without a call. The list favours compounds with an active or inconclusive main result. Words in brackets tell the shape of the fitted curve; partial curves, single points and poor fits give uncertain potencies.

Assay: qHTS Assay for Lipid Storage Modulators in Drosophila S3 Cells;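 as to cell number change: cells counted by Cell Tracker Red CMTPX staining in the red channel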
Conditions: BODIPY lipid droplet fluorescence, 18-24 h; for cell number change: measured here: cell count max response, cells fed with added oleic acid
Outline: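 Laser-scanning cytometry quantifies lipid droplet accumulation (500–530 nm total intensity; droplet/cell object ratio) in oleic acid-fed (400 uM added) Drosophila S3 cells treated with a concentration series. 20 uM Triacsin C defined 100% inhibition.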

[1] = measured here: lipid fluorescence (Fed channel) AC50, cells fed with added oleic acid
[2] = measured here: cell number channel AC50, cells fed with added oleic acid

| SMILES | cell number change | AC50 [1] | AC50 [2] |
| --- | --- | --- | --- |
| COc1ccc(NC(=O)C(=O)Nc2cccc3cccnc23)c(OC)c1 | -11.7% | – | – |
| CCOc1ccc2nc(NC(=O)c3cccnc3)sc2c1 | 18.3% | 5.8 µM [rising, single point] | – |
| Cc1cc(C)cc(N(CCC#N)C(=O)COC(=O)CN2C(=O)NC(C)(C)C2=O)c1 | 5.5% | – | – |
| CC(=O)Cc1cc(O)c2ccccc2c1OC(=O)c1ccccc1 | -9.87% | 25.9 µM [falling, single point] | – |
| COc1ccc(NC(=O)N2CCCC(C(=O)NCc3ccccc3F)C2)cc1 (stereo not given) | 37% | – | 29.1 µM [rising, single point] |
| Cc1ccnc(NC(=O)c2ccc([N+](=O)[O-])s2)c1 | – | 10 µM [falling, partial curve] | – |
| COc1ccc(S(=O)(=O)N2CCCC(C(=O)NC3CCCC3)C2)cc1OC (stereo not given) | – | 32.6 µM [falling, partial curve, poor fit] | – |
| Cc1cc(C)nc(NC(=O)CSc2nc3ccccc3s2)n1 | – | 3.26 µM [rising, partial curve] | 1.84 µM [rising, partial curve, poor fit] |
| CCN(CC(=O)Nc1c(F)cccc1F)C(=O)/C=C/c1ccc2ccccc2n1 | -9.47% | 0.291 µM [falling, partial curve, poor fit] | – |
| O=C(COC(=O)/C=C/c1cccs1)Nc1nc(-c2ccccc2)cs1 | 1.59% | – | – |
| CCN1C(=O)C(=O)N(CC(=O)c2[nH]c(C)c(C(C)=O)c2C)C1=O | 11.9% | 0.0731 µM [falling, full curve, poor fit] | – |
| CCOC(=O)C1C(=O)OC(C)(C)C1C(C)C(=O)c1ccc(C)cc1 (stereo not given) | -12.2% | 0.0517 µM [rising, full curve, poor fit] | 1.03 µM [falling, full curve] |
| COc1cc(C2C(C#N)=C(N)N(c3cccnc3)C3=C2C(=O)CC(C)(C)C3)ccc1O (stereo not given) | 49.5% | 0.82 µM [rising, full curve] | 1.3 µM [rising, full curve] |
| COc1ccc(C(=O)CCN2CCCC(C)C2)cc1 (stereo not given) | – | 29.1 µM [falling, single point] | – |
| CC(C)Sc1cc(N2CCCC2)nc(-c2ccccc2Cl)n1 | 79.5% | 0.461 µM [rising, partial curve, poor fit] | 29.1 µM [rising, partial curve, poor fit] |
| CC(C)(C)OC(=O)N1CCC(c2c(C(=O)NCC3CCN(C4CCCC4)C3)cnn2-c2ccccc2Cl)CC1 (stereo not given) | -20.3% | – | – |
| COc1cccc(COC(=O)c2sc3nc4n(c(=O)c3c2C)CCC4)c1OC | 152% | – | 3.66 µM [rising, partial curve] |

Nothing new here: entries from further up.

| SMILES | cell number change | AC50 [1] | AC50 [2] |
| --- | --- | --- | --- |
| CCOc1ccc2nc(NC(=O)c3cccnc3)sc2c1 | 18.3% | 5.8 µM [rising, single point] | – |
| Cc1cc(C)cc(N(CCC#N)C(=O)COC(=O)CN2C(=O)NC(C)(C)C2=O)c1 | 5.5% | – | – |
